About 5,400 (1.8%) of roughly 300,000 compounds were called active. Inconclusive means that the source gave no clear call. Such entries were picked first, then a sample of the others. Calls come from the whole dose curve; tested in HEK293 cells. Where the call is inconclusive, the potency comes from a doubtful curve fit.
assay: qHTS for inhibitors of binding or entry into cells for Marburg Virus; details: Marburg virus pseudotyped entry inhibition, cell reporter; series mostly up to 37.8 µM
Potency is the fitted concentration of half-maximal effect.

| SMILES | Potency |
| --- | --- |
| Nc1cc2c(cc1[N+](=O)[O-])OCCO2 | inconclusive: 0.398 µM [inhibitor, partial curve, poor fit] |
| Cc1cccc(C2(c3cccc(C)c3)CC2C(=O)Nc2ccc([N+](=O)[O-])cc2O)c1 (centres undefined) | active: 12.6 µM |
| Cc1ccc(C2=NNC(c3ccc(Cl)cc3)=Nc3ccccc32)o1 | inactive |
| CC(C)(C)C(=O)Nc1nc(-c2ccc3c(c2)OCO3)cs1 | inactive |
| COCCNC(=S)N1CCN(c2cccc(C)c2C)CC1 | inconclusive: 14.1 µM [inhibitor, single point] |
| Cc1ccc(Nc2nc3ccccc3nc2Nc2c(C)n(C)n(-c3ccccc3)c2=O)cc1 | inactive |
| COc1ccc(CN2COc3ccc4c(-c5ccccc5)cc(=O)oc4c3C2)cc1OC | inactive |
| Cc1ccc(C)c(-c2nnc(NC(=O)CCS(=O)(=O)c3ccccc3)o2)c1 | inactive |
| CCS(=O)(=O)N1N=C(c2ccccc2)CC1c1ccc2nccnc2c1 (centres undefined) | inconclusive: 29.1 µM [activator, partial curve, poor fit] |
| O=C(Cn1nc(-c2ccc(Cl)cc2)ccc1=O)N1CCN(c2ccccc2)CC1 | inactive |
| O=C(COc1ccccc1)NNC(=O)c1cc2ccccc2o1 | inconclusive: 14.1 µM [activator, single point] |
| COc1ccc(NC(=O)COC(=O)C2CCC(C(C)(C)C)CC2)c([N+](=O)[O-])c1 (centres undefined) | inconclusive: 1.26 µM [activator, single point] |
| CCCC(O)(c1ccc(Br)cc1)C(CN1CCOCC1)c1ccc(Cl)cc1 (centres undefined) | inconclusive: 17.8 µM [inhibitor, partial curve, poor fit] |
| CC(C(=O)c1ccccc1)N1C(=O)c2ccccc2C1=O (centres undefined) | inactive |
| O=C(c1ccc(OC2CCN(C/C=C/c3ccccc3)CC2)cc1)N1CCCCC1 | inconclusive: 22.4 µM [inhibitor, single point] |
| COc1ccc(-n2nc([N+](=O)[O-])c(=NCCc3cccc(C)c3)n2O)cc1 | inactive |
| CC(=O)Oc1ccc(N(C(C)=O)S(=O)(=O)c2ccc(C)c([N+](=O)[O-])c2)cc1 | inactive |
| Cc1cc2c(cc(C(=O)OCC(=O)NCc3ccco3)n2C)s1 | inactive |
| O=C(NNC(=O)C1[C@H]2CCCC[C@@H]12)c1ccc(=O)oc1 (some centres undefined) | inconclusive: 11.2 µM [activator, single point] |
| O=C(CCN1CCOCC1)c1ccc(Cl)cc1 | inactive |
| COc1ccc(NC(=O)CN(C)C(=O)/C=C/c2cn(-c3ccccc3)nc2-c2ccc(C)cc2)cc1 | inconclusive: 0.282 µM [inhibitor, full curve, poor fit] |
| CCOC(=O)c1nc(N)c(C(=O)OCC)[nH]1 | inconclusive: 35.5 µM [activator, partial curve, poor fit] |

Three records drawn at random from the list so far, as already listed:

| SMILES | Potency |
| --- | --- |
| O=C(Cn1nc(-c2ccc(Cl)cc2)ccc1=O)N1CCN(c2ccccc2)CC1 | inactive |
| O=C(COc1ccccc1)NNC(=O)c1cc2ccccc2o1 | inconclusive: 14.1 µM [activator, single point] |
| O=C(c1ccc(OC2CCN(C/C=C/c3ccccc3)CC2)cc1)N1CCCCC1 | inconclusive: 22.4 µM [inhibitor, single point] |

More structures follow:

| SMILES | Potency |
| --- | --- |
| O=S(=O)(c1ccc2c(c1)oc1ccccc12)N1CCOCC1 | inactive |
| Nc1ccc(S(=O)(=O)N2CCc3ccccc32)cc1 | inconclusive: 17.8 µM [activator, single point] |
| COc1cc(OC)c(OC)cc1CN1CCCC(C(=O)c2ccc3c(c2)OCO3)C1 (centres undefined) | inconclusive: 3.66 µM [inhibitor, partial curve, poor fit] |
| O=C(c1ccco1)N1CCN(C(=O)c2cc(-c3ccncc3)nc3ccc(Br)cc23)CC1 | inconclusive: 1.78 µM [inhibitor, partial curve, poor fit] |
| COc1ccc(S(=O)(=O)N2CCOCC2)cc1NS(=O)(=O)c1ccc(F)c(F)c1 | inconclusive: 3.55 µM [activator, single point] |
| CC(NC(=O)Cn1cc(C(=O)C2CC2)c2ccccc21)c1ccccc1 (centres undefined) | inconclusive: 35.5 µM [inhibitor, single point] |
| O=C(c1cc(-c2ccc(O)cc2)on1)N1CCN(c2ccccc2)CC1 | inconclusive: 17.8 µM [activator, single point] |
| CC(=O)N1CCN(c2ccc(C(N)=O)cc2[N+](=O)[O-])CC1 | inconclusive: 6.31 µM [activator, single point] |
| O=C(CN1CCC(O)CC1)N1c2ccccc2C=Cc2ccccc21 | inconclusive: 0.112 µM [activator, full curve, poor fit] |
| COc1ccc(NC(=O)c2ccc(Cl)c(S(=O)(=O)N3CCc4ccccc4C3)c2)cn1 | inconclusive: 20.6 µM [inhibitor, partial curve, poor fit] |
| C/C(=N\Oc1cccc(F)n1)c1ccc(Cl)cc1Cl | inactive |
| CCOc1cccc(C(=O)Nc2nnc(-c3ccco3)s2)c1 | active: 3.98 µM |
| O=C(Cn1cnc([N+](=O)[O-])n1)N/N=C/c1ccccc1O | inconclusive: 35.5 µM [inhibitor, single point] |
| COc1ccccc1C(=O)Nc1c(C)n(C)n(-c2ccccc2)c1=O | inconclusive: 16.4 µM [inhibitor, partial curve, poor fit] |
| CC(=O)Nc1ccc(NC(=O)C(=O)NCC(c2ccco2)N2CCc3ccccc3C2)cc1 (centres undefined) | inconclusive: 1.26 µM [inhibitor, single point] |
| CCCCn1c(SCC(=O)Nc2ccc(OC)cc2)nc2ccc(N3CCOCC3)cc2c1=O | inconclusive: 20.6 µM [inhibitor, single point] |
| O=C(CSc1nc2[nH]ncc2c(=O)[nH]1)Nc1ccc(OC(F)(F)F)cc1 | inactive |
| O=C(NC(=S)N(CCO)Cc1ccccc1)c1ccc(S(=O)(=O)N2CCCC2)cc1 | inconclusive: 3.55 µM [activator, single point] |
| CCCNC(=O)CCSc1nc(-c2ccc3c(c2)OCO3)cc(C(F)(F)F)n1 | inactive |
| Clc1ccc(C2=Nn3c(nnc3-c3cc(-c4ccccc4)n[nH]3)SC2)cc1 | inconclusive: 16.4 µM [inhibitor, single point] |
| Cc1ccc(C(C(=O)NC(C)(C)C)N(CC2CCCO2)C(=O)c2csnn2)cc1 (centres undefined) | inactive |
| CCc1ccc(NC(=O)Cn2c(=O)n(Cc3ccco3)c(=O)c3cccnc32)cc1 | inconclusive: 12.6 µM [activator, single point] |

Reference: PubChem BioAssay AID540276 (National Center for Advancing Translational Sciences (NCATS), 2011)
